Data published in patent US20220125891A1.
Where a chain is given by its changes, count along the chain named. These are yes or no findings as the source states them, for the method shown. Some results given as binding are weak or reduced against the parent protein; the word gives no strength.

T1: Peptide 2 (…-NH2), biotin-conjugated (human)
T1 sequence (peptide, C-terminal amide; biotin-conjugated): AFPPREYWSEPYPLPPPTC

B1: REB0014 (antibody, V domains shown)
VH: QSLEESGGGLVKPGGTLTLTCKASGIDFSSYYYMCWVRQAPGKGLEWIACIYSGDGSSYYVSWANGRFTISKTSSATVTLQMTSLTAADTATYFCARDLGNLWGPGTLVTVSS
VL: QVLTQTPASVSAAVGGTVTINCQASQSVYKNSGLSWFQQKPGQSPKRLIYSASTLDSGVPSRFKGSGSGTQFTLTISDVQCDDAATYYCLGIYVCSSVDCGAFGGGTEVVVKG
B2: REB0007 (antibody, V domains shown)
VH: QEQLEESGGDLVKPEGSLTLTCTASGFSFNSRYWICWVRQAPGKGLEWIGCIVSGDSNTYYASWAKGRFTISKTSSTTVTLQMTSLTAADTATYFCARWYTSSRPGLWGPGTLVTVSS
VL: DVVMTQTPASVSEPVGGTVTIKCQASQSISSYLSWYQQKPGQPPKLLIYSATNLASGVSSRFKGSRFGTEFTLTISDLECDDAATYYCQCSYYVSGFAFGGGTEVVVKG
B3: REB0022 (antibody, V domains shown)
VH: QEQLEESGGDLVKPEGSLTLTCTASGGSFSSRYWMCWVRQAPGKGLEWIACIVIGDRNNYYASWAKGRFTISKTSSTTVTLQMTSLTAADTATYFCARWHSSTAPSLWGPGTLVTVSS
VL: B2 VL with K22N, S50K, T52S, N53T, R66G, F67S, D81A, A98V

Biological target: T1, Peptide 2 (…-NH2), biotin-conjugated (human)
Assay: flow cytometry of antigen-coated streptavidin beads

binding, binds:
B1, B2, B3
